Data: publication PMC7718874, “Coupling of H3K27me3 recognition with transcriptional repression through the BAH-PHD-CPL2 complex in Arabidopsis” (Nature Communications, 2020)
No constants are given. Whether binding was seen depends on the method and setting. In cells and extracts the contact can be indirect. Here binding means that the protein was enriched with, or labelled near, the bait; the list need not be complete. Sequences can lack the tags named with a protein.

What was measured:
Test in all cases: affinity purification with mass spectrometry; total proteins of inflorescence tissues of epitope-tagged transgenic plants in IP buffer (50 mM Tris-HCl pH 7.6, 150 mM NaCl, 5 mM MgCl2, 10% glycerol, 0.1% NP-40, 0.5 mM DTT), precipitated with anti-Flag or anti-Myc antibodies 2 h at 4 °C, five washes, MS
[1] = molecular target: T1, AIPP2, epitope-tagged in transgenic Arabidopsis (Arabidopsis) (UniProt F4IYH6)
T1 sequence: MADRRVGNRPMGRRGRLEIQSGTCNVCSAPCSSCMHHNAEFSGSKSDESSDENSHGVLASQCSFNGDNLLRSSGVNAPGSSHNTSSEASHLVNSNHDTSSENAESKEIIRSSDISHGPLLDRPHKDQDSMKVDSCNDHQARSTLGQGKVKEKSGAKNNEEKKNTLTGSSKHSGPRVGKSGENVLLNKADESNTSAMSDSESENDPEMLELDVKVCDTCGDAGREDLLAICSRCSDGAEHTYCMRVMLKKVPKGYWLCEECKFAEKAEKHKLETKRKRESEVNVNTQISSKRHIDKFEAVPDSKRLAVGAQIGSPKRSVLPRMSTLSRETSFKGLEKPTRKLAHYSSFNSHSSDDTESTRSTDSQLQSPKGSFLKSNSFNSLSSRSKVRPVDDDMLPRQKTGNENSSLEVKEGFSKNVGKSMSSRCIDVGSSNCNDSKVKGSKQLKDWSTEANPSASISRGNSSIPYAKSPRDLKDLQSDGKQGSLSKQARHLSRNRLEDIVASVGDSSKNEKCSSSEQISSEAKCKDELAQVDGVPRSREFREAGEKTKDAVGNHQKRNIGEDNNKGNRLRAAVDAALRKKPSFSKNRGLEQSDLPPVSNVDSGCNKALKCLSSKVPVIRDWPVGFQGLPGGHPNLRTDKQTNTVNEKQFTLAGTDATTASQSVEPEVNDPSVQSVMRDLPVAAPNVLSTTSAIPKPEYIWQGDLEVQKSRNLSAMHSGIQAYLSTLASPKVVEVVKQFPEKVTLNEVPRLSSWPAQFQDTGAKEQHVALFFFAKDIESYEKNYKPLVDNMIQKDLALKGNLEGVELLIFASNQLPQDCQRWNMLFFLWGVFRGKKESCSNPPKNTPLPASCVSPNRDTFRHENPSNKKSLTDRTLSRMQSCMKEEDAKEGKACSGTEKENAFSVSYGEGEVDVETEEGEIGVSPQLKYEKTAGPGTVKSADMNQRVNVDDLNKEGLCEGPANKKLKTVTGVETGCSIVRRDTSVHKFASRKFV

[2] = molecular target: T2, ASI1-IMMUNO… PROTEIN 3 (AIPP3), epitope-tagged in transgenic Arabidopsis (Arabidopsis) (UniProt Q8RXT5)
T2 sequence: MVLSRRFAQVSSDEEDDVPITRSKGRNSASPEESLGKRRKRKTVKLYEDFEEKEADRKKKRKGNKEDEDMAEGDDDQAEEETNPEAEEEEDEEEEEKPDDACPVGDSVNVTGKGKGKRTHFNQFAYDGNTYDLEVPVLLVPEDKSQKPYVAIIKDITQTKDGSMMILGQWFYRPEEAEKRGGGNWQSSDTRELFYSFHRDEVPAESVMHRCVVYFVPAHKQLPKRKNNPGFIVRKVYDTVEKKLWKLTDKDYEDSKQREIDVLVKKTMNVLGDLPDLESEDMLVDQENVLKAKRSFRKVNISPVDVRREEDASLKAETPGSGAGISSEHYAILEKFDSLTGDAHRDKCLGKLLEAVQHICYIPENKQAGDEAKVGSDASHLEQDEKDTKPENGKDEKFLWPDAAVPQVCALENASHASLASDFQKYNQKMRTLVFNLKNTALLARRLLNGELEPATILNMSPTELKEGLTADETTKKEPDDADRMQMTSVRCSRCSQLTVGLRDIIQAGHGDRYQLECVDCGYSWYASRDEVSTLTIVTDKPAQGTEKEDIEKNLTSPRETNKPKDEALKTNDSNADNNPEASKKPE

[3] = molecular target: T3, PARALOG OF AIPP2 (PAIPP2), epitope-tagged in transgenic Arabidopsis (Arabidopsis) (UniProt F4KE59)
T3 sequence: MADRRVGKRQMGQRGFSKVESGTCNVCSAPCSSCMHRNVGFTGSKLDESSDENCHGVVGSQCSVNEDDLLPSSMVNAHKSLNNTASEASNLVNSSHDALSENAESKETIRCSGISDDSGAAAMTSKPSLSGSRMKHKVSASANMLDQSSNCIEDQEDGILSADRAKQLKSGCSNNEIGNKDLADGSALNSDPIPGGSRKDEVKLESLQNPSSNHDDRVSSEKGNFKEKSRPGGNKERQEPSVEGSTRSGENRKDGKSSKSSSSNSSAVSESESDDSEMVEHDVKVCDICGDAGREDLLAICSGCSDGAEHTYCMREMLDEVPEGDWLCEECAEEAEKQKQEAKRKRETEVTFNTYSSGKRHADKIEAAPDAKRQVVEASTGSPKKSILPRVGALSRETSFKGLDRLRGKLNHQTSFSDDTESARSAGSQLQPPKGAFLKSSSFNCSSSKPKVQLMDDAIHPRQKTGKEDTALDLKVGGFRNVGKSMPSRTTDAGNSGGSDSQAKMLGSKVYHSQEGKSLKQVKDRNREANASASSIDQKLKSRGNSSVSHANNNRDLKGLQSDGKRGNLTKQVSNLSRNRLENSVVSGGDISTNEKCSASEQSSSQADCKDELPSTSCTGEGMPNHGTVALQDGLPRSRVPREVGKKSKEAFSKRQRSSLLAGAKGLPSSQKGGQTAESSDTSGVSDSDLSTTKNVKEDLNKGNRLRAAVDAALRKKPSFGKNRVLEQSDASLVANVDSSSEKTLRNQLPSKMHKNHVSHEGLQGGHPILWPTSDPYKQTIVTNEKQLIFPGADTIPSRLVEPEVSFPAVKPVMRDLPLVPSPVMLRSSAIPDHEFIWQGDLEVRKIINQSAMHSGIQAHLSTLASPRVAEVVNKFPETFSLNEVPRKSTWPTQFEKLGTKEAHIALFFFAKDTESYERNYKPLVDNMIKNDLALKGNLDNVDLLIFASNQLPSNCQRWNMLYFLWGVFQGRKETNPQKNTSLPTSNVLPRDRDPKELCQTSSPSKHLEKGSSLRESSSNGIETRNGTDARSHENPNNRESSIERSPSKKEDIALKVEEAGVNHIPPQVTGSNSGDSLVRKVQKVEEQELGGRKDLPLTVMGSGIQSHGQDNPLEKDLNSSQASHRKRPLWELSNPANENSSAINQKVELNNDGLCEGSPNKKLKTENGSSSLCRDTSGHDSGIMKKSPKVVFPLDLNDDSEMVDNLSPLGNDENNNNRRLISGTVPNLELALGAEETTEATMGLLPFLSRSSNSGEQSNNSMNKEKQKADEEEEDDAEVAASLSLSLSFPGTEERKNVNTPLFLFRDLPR

[4] = molecular target: T4, CPL2, epitope-tagged in transgenic Arabidopsis (Arabidopsis) (UniProt Q5YDB5)
T4 sequence: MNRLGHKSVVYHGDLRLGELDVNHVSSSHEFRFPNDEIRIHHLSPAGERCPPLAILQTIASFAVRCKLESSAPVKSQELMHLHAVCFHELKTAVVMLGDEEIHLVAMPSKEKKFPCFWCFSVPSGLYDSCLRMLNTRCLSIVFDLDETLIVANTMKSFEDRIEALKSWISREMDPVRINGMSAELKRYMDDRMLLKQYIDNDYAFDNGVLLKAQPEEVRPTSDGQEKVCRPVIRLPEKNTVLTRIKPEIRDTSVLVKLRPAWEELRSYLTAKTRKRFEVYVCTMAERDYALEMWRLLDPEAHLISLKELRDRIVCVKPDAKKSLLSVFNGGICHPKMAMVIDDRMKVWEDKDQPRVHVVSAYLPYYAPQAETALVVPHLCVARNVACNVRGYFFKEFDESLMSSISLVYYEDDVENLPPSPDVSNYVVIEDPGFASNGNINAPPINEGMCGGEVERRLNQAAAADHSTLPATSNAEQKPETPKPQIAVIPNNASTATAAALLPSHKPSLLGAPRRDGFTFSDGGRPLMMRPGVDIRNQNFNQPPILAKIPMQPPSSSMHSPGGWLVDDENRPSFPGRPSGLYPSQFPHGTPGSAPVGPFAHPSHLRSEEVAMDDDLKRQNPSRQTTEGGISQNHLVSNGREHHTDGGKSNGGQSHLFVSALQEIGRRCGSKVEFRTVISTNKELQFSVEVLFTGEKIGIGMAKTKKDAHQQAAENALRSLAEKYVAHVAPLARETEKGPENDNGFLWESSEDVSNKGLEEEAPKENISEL

Measured: binding

B1: CPL2, epitope-tagged in transgenic Arabidopsis (enzyme, UniProt Q5YDB5 1-770)
chain: MNRLGHKSVVYHGDLRLGELDVNHVSSSHEFRFPNDEIRIHHLSPAGERCPPLAILQTIASFAVRCKLESSAPVKSQELMHLHAVCFHELKTAVVMLGDEEIHLVAMPSKEKKFPCFWCFSVPSGLYDSCLRMLNTRCLSIVFDLDETLIVANTMKSFEDRIEALKSWISREMDPVRINGMSAELKRYMDDRMLLKQYIDNDYAFDNGVLLKAQPEEVRPTSDGQEKVCRPVIRLPEKNTVLTRIKPEIRDTSVLVKLRPAWEELRSYLTAKTRKRFEVYVCTMAERDYALEMWRLLDPEAHLISLKELRDRIVCVKPDAKKSLLSVFNGGICHPKMAMVIDDRMKVWEDKDQPRVHVVSAYLPYYAPQAETALVVPHLCVARNVACNVRGYFFKEFDESLMSSISLVYYEDDVENLPPSPDVSNYVVIEDPGFASNGNINAPPINEGMCGGEVERRLNQAAAADHSTLPATSNAEQKPETPKPQIAVIPNNASTATAAALLPSHKPSLLGAPRRDGFTFSDGGRPLMMRPGVDIRNQNFNQPPILAKIPMQPPSSSMHSPGGWLVDDENRPSFPGRPSGLYPSQFPHGTPGSAPVGPFAHPSHLRSEEVAMDDDLKRQNPSRQTTEGGISQNHLVSNGREHHTDGGKSNGGQSHLFVSALQEIGRRCGSKVEFRTVISTNKELQFSVEVLFTGEKIGIGMAKTKKDAHQQAAENALRSLAEKYVAHVAPLARETEKGPENDNGFLWESSEDVSNKGLEEEAPKENISEL
binds: [1] | [2] | [3]

B2: ASI1-IMMUNO… PROTEIN 3 (AIPP3), epitope-tagged in transgenic Arabidopsis (protein, UniProt Q8RXT5 1-587)
chain: MVLSRRFAQVSSDEEDDVPITRSKGRNSASPEESLGKRRKRKTVKLYEDFEEKEADRKKKRKGNKEDEDMAEGDDDQAEEETNPEAEEEEDEEEEEKPDDACPVGDSVNVTGKGKGKRTHFNQFAYDGNTYDLEVPVLLVPEDKSQKPYVAIIKDITQTKDGSMMILGQWFYRPEEAEKRGGGNWQSSDTRELFYSFHRDEVPAESVMHRCVVYFVPAHKQLPKRKNNPGFIVRKVYDTVEKKLWKLTDKDYEDSKQREIDVLVKKTMNVLGDLPDLESEDMLVDQENVLKAKRSFRKVNISPVDVRREEDASLKAETPGSGAGISSEHYAILEKFDSLTGDAHRDKCLGKLLEAVQHICYIPENKQAGDEAKVGSDASHLEQDEKDTKPENGKDEKFLWPDAAVPQVCALENASHASLASDFQKYNQKMRTLVFNLKNTALLARRLLNGELEPATILNMSPTELKEGLTADETTKKEPDDADRMQMTSVRCSRCSQLTVGLRDIIQAGHGDRYQLECVDCGYSWYASRDEVSTLTIVTDKPAQGTEKEDIEKNLTSPRETNKPKDEALKTNDSNADNNPEASKKPE
binds: [1] | [4] | [3]
